From PubChem BioAssay AID2685 (National Center for Advancing Translational Sciences (NCATS), 2010)
Some of the results follow. Shown are side measurements of this screen, not its main read-out; they come without a call. Most of these compounds were active or inconclusive in the main read-out, so they are no random draw. The note in brackets gives the kind of curve behind each potency; many fits are weak.

Test: qHTS Assay for Lipid Storage Modulators in Drosophila S3 Cells;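 as to cell number change: cells counted by Cell Tracker Red CMTPX staining in the red channel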
Conditions: BODIPY lipid droplet fluorescence, 18-24 h; for cell number change: measured here: cell count max response, cells fed with added oleic acid
Procedure, shortened: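 Drosophila S3 cells got compounds at several concentrations plus oleic acid (400 uM solution). Laser-scanning cytometry with 488 nm excitation read lipid droplets at 500-530 nm and cells at 575-640 nm. Percent activity was relative to 20 uM Triacsin C.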

[1] = measured here: lipid fluorescence (Fed channel) AC50, cells fed with added oleic acid
[2] = measured here: cell number channel AC50, cells fed with added oleic acid

CCC1CCCCN1CCCNC(=O)CNC(=O)c1nn(-c2ccc(OC)cc2)c(=O)c2ccccc12 (stereo unspecified)
cell number change: 6.76%
AC50 [1]: 6.51 µM [falling, partial curve, poor fit]

Cc1ccc(-n2cc(CN3CCC(CO)(Cc4cccc(C(F)(F)F)c4)CC3)cn2)cc1
cell number change: -41.6%
AC50 [2]: 20.6 µM [falling, single point]
AC50 [1]: 29.1 µM [falling, single point]

N#C/C(=C\c1ccc([N+](=O)[O-])o1)C(=O)Nc1ccc(F)cc1
cell number change: 63.1%
AC50 [2]: 32.6 µM [rising, partial curve]

COc1ccc(-c2cn[nH]c2-c2ccc(OCC(=O)NN)cc2O)cc1
cell number change: 22.5%
AC50 [2]: 6.51 µM [rising, single point]

COc1ccc(CC(=O)OCC(=O)Nc2ccc(Cl)cn2)cc1
AC50 [2]: 0.731 µM [rising, single point]

COCCCNC(=O)C(C)N1c2cccc3cccc(c23)S1(=O)=O (stereo unspecified)
AC50 [1]: 25.9 µM [rising, single point]

Cc1ccc(C2Nc3cccc4cccc(c34)N2)cc1
cell number change: 9.12%
AC50 [1]: 29.1 µM [rising, single point]

Cc1cc(CC(C)C)n(-c2nc3ccccc3c(=O)n2OCC(=O)N(C)C)n1
cell number change: -5.54%

CCc1ccccc1NC(=O)C1CCCN1S(=O)(=O)c1ccc(-c2ccc(=O)[nH]n2)s1 (stereo unspecified)
AC50 [1]: 0.58 µM [rising, single point]

O=C(COc1cccc2cccnc12)Nc1cccc(S(=O)(=O)N2CCCC2)c1
cell number change: -32.5%
AC50 [2]: 41.1 µM [falling, partial curve, poor fit]
AC50 [1]: 0.206 µM [rising, full curve, poor fit]

Nc1nnc(CC(=O)N/N=C/c2ccc(-c3ccc(Cl)cc3Cl)o2)s1
cell number change: 10%
AC50 [1]: 3.66 µM [rising, single point]

O=C1C(=O)N(c2ccc(O)cc2)C(c2ccccc2[N+](=O)[O-])/C1=C(\O)c1ccccc1 (stereo unspecified)
cell number change: -15.8%
AC50 [1]: 7.31 µM [falling, partial curve, poor fit]

C=CCn1c(=NC(=O)c2ccccc2[N+](=O)[O-])sc2cc(S(C)(=O)=O)ccc21
cell number change: 0.215%
AC50 [1]: 1.16 µM [rising, partial curve, poor fit]

O=C(N/N=C/c1ccccc1F)C(=O)N1CCCCCC1
cell number change: 36.5%
AC50 [2]: 29.1 µM [rising, single point]

CC1CCN(C(=O)c2[nH]cnc2C(=O)N[C@@H](Cc2ccccc2)C(=O)OC(C)(C)C)CC1
cell number change: 13.2%

Cc1ccc(CCNC(=O)C2CCCN(S(=O)(=O)c3cccc4nsnc34)C2)cc1 (stereo unspecified)
cell number change: 2.14%
AC50 [1]: 0.58 µM [rising, single point]

CC1CCN(S(=O)(=O)c2ccc3c(ccn3CC(=O)O)c2)CC1
cell number change: 15%

Clc1ccc(/C=N/NC(=Nc2ccccc2)c2ccccn2)c(Cl)c1
cell number change: -10.3%
AC50 [1]: 29.1 µM [falling, single point]

C=CCn1c(=N)n(CC(=O)c2ccc(Cl)cc2)c2ccccc21
AC50 [1]: 29.1 µM [rising, single point]

CCCNC(=O)c1onc(CSc2ccc(Cl)cc2)c1C(=O)NC(C)C
cell number change: -0.066%
AC50 [1]: 0.00461 µM [falling, full curve, poor fit]

CCCCCC(=O)NNC(=O)c1ccc(-c2ccccc2)cc1
AC50 [2]: 1.16 µM [rising, full curve]
AC50 [1]: 0.82 µM [rising, partial curve]

CC(C)(C)c1ccc(-n2nc(C#N)c(Cl)cc2=O)cc1
cell number change: -76.8%
AC50 [1]: 29.1 µM [falling, single point]

COc1ccc(NC(=O)C(=O)NCCN2CCN(C(=O)c3cccc(Br)c3)CC2)cc1
cell number change: -0.959%
AC50 [1]: 10 µM [rising, partial curve, poor fit]

N#Cc1ccsc1NC(=O)C1CC(=O)N(Cc2ccccc2)C1 (stereo unspecified)
cell number change: -18%
AC50 [1]: 20.6 µM [falling, single point]

CC(OC(=O)C1=NNC(=O)CC1)C(=O)Nc1ncc(Cl)cc1Cl (stereo unspecified)
cell number change: -22.4%

CCc1cc2c(NCCO)ncnc2s1
cell number change: 28.2%
AC50 [2]: 0.82 µM [rising, full curve, poor fit]
AC50 [1]: 20.6 µM [rising, partial curve, poor fit]

Cc1ccc(SCCN)cc1C
cell number change: 22.7%

COc1ccc(Cn2nnnc2C(c2ccccc2)N2CCN(C3CCCC3)CC2)cc1 (stereo unspecified)
cell number change: 44.5%
AC50 [2]: 5.17 µM [rising, full curve]

Cc1ccc(-c2nc(CS(=O)CC(=O)NCCN(CC(C)C)CC(C)C)c(C)o2)cc1 (stereo unspecified)
cell number change: -106%
AC50 [2]: 29.1 µM [falling, single point]

COc1ccc(Nc2nc(N3CCOCC3)nc(N3CCOCC3)n2)cc1Cl
cell number change: -48.1%
AC50 [2]: 16.4 µM [falling, partial curve]
AC50 [1]: 29.1 µM [falling, single point]

O=C(O)C1CCCCC1C(=O)NCCc1ccccc1 (stereo unspecified)
cell number change: -7.34%
AC50 [1]: 0.731 µM [falling, full curve, poor fit]

CCOC(=O)Cn1c(=O)c2c(nc(Br)n2Cc2ccc(Cl)cc2)n(C)c1=O
cell number change: -40.3%
AC50 [2]: 0.82 µM [falling, full curve, poor fit]

Cc1nc(=O)c(-c2ccccc2)c(C)n1-c1ccccc1
cell number change: -0.552%
AC50 [1]: 6.51 µM [falling, single point]

CCOC(CNC(=O)Cc1c(C)nc2c(-c3ccccc3)c(C)nn2c1C)OCC
cell number change: 28.2%

COc1ccc(S(=O)(=O)NCCSCc2ccco2)cc1
cell number change: 14.5%
AC50 [1]: 6.51 µM [falling, single point]

O=C(c1ccc2ccccc2c1)N1CCCCC1
cell number change: -9.21%
AC50 [1]: 15.8 µM [falling, single point]

CCCN1C2CCCC1CC(NC(=O)c1ccc(C(C)(C)C)cc1)C2 (stereo unspecified)
cell number change: -9.46%
AC50 [1]: 4.61 µM [falling, single point]

CCCc1cc(=O)oc2cc(OCC(=O)NCCCN3CCOCC3)ccc12
cell number change: 135%
AC50 [2]: 29.1 µM [rising, single point]

COc1ccc(C)cc1N(C(=O)CNC(=O)c1ccco1)C(C(=O)NC1CCCC1)c1cccnc1 (stereo unspecified)
cell number change: 32.4%
AC50 [2]: 14.6 µM [rising, single point]
AC50 [1]: 4.11 µM [rising, single point]

CCOc1ccc(OCCn2ccnc2)cc1
cell number change: -4.94%
AC50 [1]: 0.092 µM [falling, partial curve, poor fit]

Cc1cc(C)c2nc(NNC(=O)c3ccc(S(=O)(=O)N4CCCC(C)C4)cc3)sc2c1 (stereo unspecified)
cell number change: -41.2%
AC50 [2]: 20.6 µM [falling, partial curve, poor fit]
AC50 [1]: 23.1 µM [falling, partial curve]

COc1cc(/C=C2\C(=N)N3N=C(N4CCOCC4)SC3=NC2=O)ccc1OC(=O)c1ccccc1
cell number change: -33.7%
AC50 [2]: 23.1 µM [falling, single point]
AC50 [1]: 0.164 µM [falling, full curve]

Cc1ccc(CNCc2cc(Cl)ccc2O)cc1
cell number change: -34.8%
AC50 [2]: 9.2 µM [falling, partial curve]

Cc1ccc(C(=O)NCCSc2ccc(Cl)cc2)cc1S(=O)(=O)Nc1ccccc1
cell number change: -28.9%
AC50 [2]: 4.11 µM [falling, full curve, poor fit]

O=C(NCCCN1CCOCC1)c1ccc2c(c1)N(Cc1cccc(Cl)c1)C(=O)CS2
cell number change: -2.38%
AC50 [1]: 6.51 µM [rising, single point]

Cc1cccnc1NC(=O)CCCN1C(=O)c2ccccc2C1=O
AC50 [2]: 0.00461 µM [rising, full curve, poor fit]
AC50 [1]: 0.411 µM [rising, full curve]

CCN(Cc1nc2ccccc2c(=O)[nH]1)Cc1cc(=O)oc2cc(OC)ccc12
cell number change: 23.2%
AC50 [1]: 23.1 µM [rising, single point]

COC(=O)CN1C(=O)N/C(=C/c2ccccc2OC)C1=O
cell number change: 17.5%
AC50 [1]: 23.1 µM [rising, single point]

CCN(CCCCOC(=O)c1ccc(OC)c(OC)c1)C(C)Cc1ccc(OC)cc1 (stereo unspecified)
cell number change: 10.9%
AC50 [1]: 6.51 µM [falling, single point]

CN(C)c1ccc(CNS(=O)(=O)c2csc(C(N)=O)c2)cc1
cell number change: -8.96%
AC50 [1]: 0.206 µM [falling, full curve, poor fit]

Cc1[nH]c2ccccc2c1/C=N/NC(=S)NC(C)C
cell number change: -87.4%
AC50 [2]: 0.0164 µM [falling, full curve, poor fit]

COc1ccc(NS(=O)(=O)c2cc3c(cc2C)N(C)CCO3)cc1
AC50 [1]: 1.64 µM [rising, partial curve]

CSc1ncc(C(=O)Nc2cccc(Cl)c2)c(C)n1
cell number change: -22.7%
AC50 [1]: 0.58 µM [rising, single point]

COc1ccc(Cl)cc1NC(=S)NNC(=O)c1cccnc1
cell number change: -3.99%

COc1ccccc1N(CC(=O)NC1CCCCC1)S(=O)(=O)c1ccccc1
cell number change: -1.71%

CCCn1c(C(C)NS(=O)(=O)c2ccccc2)n[nH]c1=S (stereo unspecified)
cell number change: 4.96%

CCOc1cc(C)c(Cl)cc1S(=O)(=O)N(CC)CC
cell number change: -1.76%
AC50 [1]: 13 µM [rising, partial curve]

CC12CCC(=O)N1C(C(=O)NNC(=O)c1cccc(Cl)c1)CS2 (stereo unspecified)
cell number change: 1.5%

CCSc1nnc(NC(=O)C2CCN(S(=O)(=O)c3cc(C(F)(F)F)ccc3Cl)CC2)s1
cell number change: 38.7%
AC50 [2]: 7.31 µM [rising, partial curve]

CC(=O)OC(/C(O)=C(\C#N)c1nc2ccccc2[nH]1)c1ccccc1 (stereo unspecified)
cell number change: -9.19%

CCc1ccc(Cn2nnc(C(=O)NCc3ccccc3OC)c2N)cc1
cell number change: 9.69%
AC50 [1]: 0.146 µM [rising, full curve, poor fit]

O=C(Cc1cccs1)Nc1cccc([N+](=O)[O-])c1
cell number change: -37.9%
AC50 [2]: 1.84 µM [falling, full curve]
AC50 [1]: 1.3 µM [falling, partial curve]
